Results from patent US20230183347A1.
Substitutions are numbered along the chain they refer to. No constants are given. Whether binding was seen depends on the method and setting. Some results given as binding are weak or reduced against the parent protein; the word gives no strength.

By UniProt entry, the sequences of proteins in these tests, tags left out. Where a name states a change or a piece, a line headed by the entry shows the natural chain unless it says otherwise.
UniProt Q15116: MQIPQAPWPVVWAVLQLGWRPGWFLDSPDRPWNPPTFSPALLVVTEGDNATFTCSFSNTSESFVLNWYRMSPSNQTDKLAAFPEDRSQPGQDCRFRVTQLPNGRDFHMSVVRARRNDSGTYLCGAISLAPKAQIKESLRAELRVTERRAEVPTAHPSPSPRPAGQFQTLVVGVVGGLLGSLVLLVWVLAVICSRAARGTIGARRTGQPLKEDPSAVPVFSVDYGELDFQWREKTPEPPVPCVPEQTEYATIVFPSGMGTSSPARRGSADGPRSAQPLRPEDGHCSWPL

B1: HM266, anti-human PD-1 mouse monoclonal antibody (mouse IgG1, kappa) (antibody, V domains shown)
VH: QVQLQQSGPELVKPGASVKMSCKASGYTFTSYYIQWVKQRPGQGLEWIGWIYPGDGSSKYNEKFKGKTTLTADKSSSTAYMLLSSLTSEDSGIYFCASYYGSSFDYWGQGTTLTVSS
VL: DIQMTQTTSSLSASLGDRVTISCRASQDISNYLNWYQQKPDGTVKFLIYYSSRLHSGVPSRFSGSGSGTDYSLTISNLEQEDIATYFCQQGSTLPFTFGGGTKLEIKR
B2: HM647, anti-human PD-1 mouse monoclonal antibody (mouse IgG1, kappa) (antibody, V domains shown)
VH: EVLLQQSGPELVKPGASVKITCKASGYTFTDYNMDWVKQSHGKSLEWIGDIDPNNGGTVYNQKFKDKASLTVDKSSSTGYMELRSLTSEDTAVYYCARWRSAMDYWGQGTSVTVSS
VL: B1 VL with T7P, F46L, Y49S, S51T, E81V, G91Y, F96W, T102S

Molecular target: human PD-1 (form used in the binding test not stated) (human) (UniProt Q15116)
Experiment: domain mapping; method not described (definition in paragraph 30)

Row | Binder | binding
1 | B1 | binds
2 | B2 | binds
